± gives the standard deviation of the averaged measurements. This is one part of the list.
Compound: Nc1nc2c(ncn2[C@@H]2O[C@H](COP(=O)(O)OP(=O)(O)OP(=O)(O)O)[C@@H](O)[C@H]2O)c(=O)[nH]1 [guanosine triphosphate]
Assay: NP40-soluble protein abundance relative to vehicle (solubility fold change) (ratio); higher = more soluble protein in presence of GTP
In short: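 Jurkat crude lysate (Dounce-homogenised) was treated with eight concentrations from 0.1 to 10 mM for 10 min at room temperature, then 3 min at 37 °C. It was solubilised with 0.8% NP40 and benzonase (60 min, 4 °C) and ultracentrifuged, and the supernatant was TMT-labelled for LC-MS/MS. Intensities were vsn-normalised, and the value is the fold change against the NP40-processed vehicle per replicate, from three independent experiments.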

Sequences of proteins named here, by UniProt entry; tags and fusion partners are left off. A change or cut given only in a name is not applied to a line headed by its entry.
UniProt Q9UDW1: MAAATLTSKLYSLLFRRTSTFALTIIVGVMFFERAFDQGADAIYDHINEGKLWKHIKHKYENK
UniProt Q9ULH0: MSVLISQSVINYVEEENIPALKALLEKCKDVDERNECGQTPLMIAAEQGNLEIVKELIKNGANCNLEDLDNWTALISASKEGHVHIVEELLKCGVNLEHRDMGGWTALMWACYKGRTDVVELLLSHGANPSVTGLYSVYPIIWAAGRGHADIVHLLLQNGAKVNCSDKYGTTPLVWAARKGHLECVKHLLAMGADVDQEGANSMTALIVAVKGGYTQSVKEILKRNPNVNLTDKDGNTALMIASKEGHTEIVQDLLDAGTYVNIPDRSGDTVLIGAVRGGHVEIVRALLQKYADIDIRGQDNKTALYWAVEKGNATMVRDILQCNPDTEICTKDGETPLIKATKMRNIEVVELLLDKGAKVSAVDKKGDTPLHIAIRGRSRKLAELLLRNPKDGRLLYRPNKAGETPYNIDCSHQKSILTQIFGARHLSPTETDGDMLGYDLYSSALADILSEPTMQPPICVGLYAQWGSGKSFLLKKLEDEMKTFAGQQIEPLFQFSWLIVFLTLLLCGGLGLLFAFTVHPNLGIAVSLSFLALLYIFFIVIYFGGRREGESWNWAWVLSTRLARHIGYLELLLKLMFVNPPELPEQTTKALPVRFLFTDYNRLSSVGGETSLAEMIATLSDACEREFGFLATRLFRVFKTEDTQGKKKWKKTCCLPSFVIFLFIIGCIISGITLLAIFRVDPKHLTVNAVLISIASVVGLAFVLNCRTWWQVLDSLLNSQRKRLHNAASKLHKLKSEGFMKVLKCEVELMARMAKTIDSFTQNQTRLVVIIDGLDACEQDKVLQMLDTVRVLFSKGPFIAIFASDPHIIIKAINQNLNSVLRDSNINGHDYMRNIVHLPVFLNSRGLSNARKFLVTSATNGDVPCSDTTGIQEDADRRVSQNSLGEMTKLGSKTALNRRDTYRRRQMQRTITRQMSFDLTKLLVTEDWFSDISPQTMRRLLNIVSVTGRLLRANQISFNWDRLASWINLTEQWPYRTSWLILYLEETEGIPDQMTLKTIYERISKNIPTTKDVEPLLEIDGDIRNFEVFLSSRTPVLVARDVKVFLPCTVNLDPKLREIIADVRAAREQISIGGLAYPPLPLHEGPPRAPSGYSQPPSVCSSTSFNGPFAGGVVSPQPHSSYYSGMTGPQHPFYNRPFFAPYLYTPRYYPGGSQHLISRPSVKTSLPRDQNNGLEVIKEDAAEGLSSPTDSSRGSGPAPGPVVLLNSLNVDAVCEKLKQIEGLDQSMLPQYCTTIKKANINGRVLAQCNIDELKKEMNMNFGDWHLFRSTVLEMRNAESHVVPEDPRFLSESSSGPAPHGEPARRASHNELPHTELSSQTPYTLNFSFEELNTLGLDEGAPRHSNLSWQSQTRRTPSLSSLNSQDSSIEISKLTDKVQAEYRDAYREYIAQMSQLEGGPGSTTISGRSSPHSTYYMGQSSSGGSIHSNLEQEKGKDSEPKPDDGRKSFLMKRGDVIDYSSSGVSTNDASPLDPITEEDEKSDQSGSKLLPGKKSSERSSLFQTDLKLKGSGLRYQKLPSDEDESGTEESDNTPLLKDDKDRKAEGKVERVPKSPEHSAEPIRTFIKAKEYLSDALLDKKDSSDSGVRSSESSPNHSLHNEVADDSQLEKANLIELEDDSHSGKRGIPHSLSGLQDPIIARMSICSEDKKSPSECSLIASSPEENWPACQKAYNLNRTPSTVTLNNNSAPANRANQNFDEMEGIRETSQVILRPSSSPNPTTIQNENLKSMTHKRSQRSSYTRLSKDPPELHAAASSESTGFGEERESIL
UniProt Q9NWB6: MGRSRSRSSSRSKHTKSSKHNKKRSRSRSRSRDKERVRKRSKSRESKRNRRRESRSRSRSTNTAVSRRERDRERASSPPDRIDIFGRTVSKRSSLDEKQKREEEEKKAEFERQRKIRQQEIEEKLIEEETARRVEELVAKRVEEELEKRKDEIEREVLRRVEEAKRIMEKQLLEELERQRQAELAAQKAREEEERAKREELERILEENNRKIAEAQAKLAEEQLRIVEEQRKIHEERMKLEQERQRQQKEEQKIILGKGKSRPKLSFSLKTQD
UniProt Q9NZN5: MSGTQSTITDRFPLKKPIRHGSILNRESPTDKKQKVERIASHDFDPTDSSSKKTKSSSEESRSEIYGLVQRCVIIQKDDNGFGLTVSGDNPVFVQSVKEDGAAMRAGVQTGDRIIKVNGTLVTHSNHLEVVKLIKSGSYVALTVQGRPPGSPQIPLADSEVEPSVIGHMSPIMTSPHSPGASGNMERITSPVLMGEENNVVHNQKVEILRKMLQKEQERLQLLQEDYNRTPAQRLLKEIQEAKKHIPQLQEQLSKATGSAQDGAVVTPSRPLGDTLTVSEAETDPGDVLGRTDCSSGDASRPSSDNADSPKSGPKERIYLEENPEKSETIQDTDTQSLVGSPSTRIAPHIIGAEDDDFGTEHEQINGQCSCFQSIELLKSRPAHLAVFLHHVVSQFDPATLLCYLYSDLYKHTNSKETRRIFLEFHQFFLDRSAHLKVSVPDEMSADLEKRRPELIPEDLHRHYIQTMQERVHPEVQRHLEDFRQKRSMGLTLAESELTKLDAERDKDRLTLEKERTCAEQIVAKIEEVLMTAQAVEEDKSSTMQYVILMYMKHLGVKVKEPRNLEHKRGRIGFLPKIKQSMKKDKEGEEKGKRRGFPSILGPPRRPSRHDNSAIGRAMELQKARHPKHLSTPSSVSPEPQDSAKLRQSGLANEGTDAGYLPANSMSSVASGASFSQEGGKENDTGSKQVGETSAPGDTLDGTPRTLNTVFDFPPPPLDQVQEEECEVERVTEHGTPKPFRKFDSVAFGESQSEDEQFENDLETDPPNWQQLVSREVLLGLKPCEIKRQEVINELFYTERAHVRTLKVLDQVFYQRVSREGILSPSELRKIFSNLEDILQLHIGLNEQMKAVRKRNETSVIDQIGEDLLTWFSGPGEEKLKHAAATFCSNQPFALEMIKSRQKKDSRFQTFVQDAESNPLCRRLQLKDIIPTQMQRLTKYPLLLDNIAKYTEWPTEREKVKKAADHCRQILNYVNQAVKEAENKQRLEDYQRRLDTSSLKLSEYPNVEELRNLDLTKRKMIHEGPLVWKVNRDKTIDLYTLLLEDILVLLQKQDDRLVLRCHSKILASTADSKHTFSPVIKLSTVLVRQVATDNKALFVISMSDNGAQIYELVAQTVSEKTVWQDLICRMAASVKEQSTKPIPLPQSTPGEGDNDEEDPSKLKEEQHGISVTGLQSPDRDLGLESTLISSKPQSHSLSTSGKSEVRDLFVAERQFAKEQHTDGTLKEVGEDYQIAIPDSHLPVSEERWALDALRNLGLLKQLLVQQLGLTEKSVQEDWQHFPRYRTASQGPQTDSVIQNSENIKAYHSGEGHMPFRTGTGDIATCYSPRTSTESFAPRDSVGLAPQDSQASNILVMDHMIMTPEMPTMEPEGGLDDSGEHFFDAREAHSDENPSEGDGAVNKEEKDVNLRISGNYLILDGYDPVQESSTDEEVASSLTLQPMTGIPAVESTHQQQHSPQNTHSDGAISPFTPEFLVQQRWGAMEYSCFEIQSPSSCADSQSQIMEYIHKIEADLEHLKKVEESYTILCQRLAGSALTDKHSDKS
UniProt Q9P0B6: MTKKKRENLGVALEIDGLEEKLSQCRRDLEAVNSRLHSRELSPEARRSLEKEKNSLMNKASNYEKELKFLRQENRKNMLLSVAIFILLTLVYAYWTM
UniProt Q9P2N6: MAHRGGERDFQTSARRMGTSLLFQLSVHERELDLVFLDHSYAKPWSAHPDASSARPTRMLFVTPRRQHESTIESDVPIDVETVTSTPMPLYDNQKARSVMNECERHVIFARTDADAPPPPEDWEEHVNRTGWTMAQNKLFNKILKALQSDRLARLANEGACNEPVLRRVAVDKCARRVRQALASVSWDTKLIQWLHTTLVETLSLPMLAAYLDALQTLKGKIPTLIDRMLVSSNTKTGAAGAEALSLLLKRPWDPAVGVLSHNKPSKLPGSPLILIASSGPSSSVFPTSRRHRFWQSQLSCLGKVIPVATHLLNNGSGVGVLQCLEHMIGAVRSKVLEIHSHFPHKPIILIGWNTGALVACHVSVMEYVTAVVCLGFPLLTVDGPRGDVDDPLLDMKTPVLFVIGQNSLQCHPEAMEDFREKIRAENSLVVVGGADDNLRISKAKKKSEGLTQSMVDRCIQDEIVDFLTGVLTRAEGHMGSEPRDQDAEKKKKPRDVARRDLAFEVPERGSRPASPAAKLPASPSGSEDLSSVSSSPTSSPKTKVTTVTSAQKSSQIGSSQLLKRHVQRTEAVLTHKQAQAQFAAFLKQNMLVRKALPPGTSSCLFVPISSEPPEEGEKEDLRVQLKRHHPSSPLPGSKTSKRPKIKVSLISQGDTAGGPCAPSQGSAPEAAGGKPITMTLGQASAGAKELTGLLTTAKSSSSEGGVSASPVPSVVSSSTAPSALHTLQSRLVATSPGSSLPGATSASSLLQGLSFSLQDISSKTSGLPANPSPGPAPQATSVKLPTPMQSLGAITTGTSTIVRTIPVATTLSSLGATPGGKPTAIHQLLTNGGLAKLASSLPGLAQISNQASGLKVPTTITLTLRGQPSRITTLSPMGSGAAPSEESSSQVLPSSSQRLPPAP
UniProt Q9UBV2: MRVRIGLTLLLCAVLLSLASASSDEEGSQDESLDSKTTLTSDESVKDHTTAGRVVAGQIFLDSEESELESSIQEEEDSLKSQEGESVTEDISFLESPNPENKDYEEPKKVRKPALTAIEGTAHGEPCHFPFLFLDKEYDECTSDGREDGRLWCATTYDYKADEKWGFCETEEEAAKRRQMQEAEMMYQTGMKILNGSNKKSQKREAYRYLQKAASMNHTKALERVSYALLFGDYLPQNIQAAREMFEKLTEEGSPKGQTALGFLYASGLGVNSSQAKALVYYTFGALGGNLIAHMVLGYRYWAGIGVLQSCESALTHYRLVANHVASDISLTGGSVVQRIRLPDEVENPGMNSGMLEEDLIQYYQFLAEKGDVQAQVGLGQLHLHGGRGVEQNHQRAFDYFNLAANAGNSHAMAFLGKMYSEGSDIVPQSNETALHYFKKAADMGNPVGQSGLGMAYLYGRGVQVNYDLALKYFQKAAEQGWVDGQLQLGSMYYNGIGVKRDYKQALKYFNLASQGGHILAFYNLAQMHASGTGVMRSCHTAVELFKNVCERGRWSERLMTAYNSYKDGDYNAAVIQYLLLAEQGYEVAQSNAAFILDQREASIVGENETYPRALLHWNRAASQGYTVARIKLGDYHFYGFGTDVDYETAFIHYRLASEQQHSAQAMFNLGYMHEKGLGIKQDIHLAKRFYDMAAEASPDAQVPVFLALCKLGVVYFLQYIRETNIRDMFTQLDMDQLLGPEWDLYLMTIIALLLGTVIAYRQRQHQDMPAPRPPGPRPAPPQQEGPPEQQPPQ
UniProt Q9NZD8: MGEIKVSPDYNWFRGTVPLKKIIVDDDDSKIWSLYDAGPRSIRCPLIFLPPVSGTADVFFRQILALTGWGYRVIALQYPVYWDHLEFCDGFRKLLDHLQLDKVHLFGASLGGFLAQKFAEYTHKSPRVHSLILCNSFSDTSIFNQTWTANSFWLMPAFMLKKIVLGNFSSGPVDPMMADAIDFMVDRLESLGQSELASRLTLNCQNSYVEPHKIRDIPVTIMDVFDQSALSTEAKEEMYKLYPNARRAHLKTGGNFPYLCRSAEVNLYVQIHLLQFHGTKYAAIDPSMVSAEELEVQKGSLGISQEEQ
UniProt Q9NVZ3: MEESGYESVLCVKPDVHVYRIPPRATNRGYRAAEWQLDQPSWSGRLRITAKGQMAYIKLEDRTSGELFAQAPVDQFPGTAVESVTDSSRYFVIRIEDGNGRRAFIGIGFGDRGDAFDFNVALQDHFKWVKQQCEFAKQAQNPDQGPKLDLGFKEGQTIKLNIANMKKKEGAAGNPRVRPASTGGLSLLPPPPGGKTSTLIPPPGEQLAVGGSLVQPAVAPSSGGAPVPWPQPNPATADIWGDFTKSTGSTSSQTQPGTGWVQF
UniProt Q9UJT0: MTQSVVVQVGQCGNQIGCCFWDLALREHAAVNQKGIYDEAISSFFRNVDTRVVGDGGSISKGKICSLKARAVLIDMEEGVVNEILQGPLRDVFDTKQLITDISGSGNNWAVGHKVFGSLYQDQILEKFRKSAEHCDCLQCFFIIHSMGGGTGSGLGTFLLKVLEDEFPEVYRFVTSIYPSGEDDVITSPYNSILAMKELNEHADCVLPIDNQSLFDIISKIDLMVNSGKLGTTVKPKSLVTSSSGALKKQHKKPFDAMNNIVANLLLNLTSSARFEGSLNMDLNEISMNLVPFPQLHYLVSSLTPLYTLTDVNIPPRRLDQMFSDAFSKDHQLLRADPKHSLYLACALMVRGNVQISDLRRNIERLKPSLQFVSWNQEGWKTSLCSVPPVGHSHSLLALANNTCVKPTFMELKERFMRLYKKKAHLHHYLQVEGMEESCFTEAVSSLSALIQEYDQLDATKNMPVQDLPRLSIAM

Target	NP40-soluble protein abundance (concentration: 0.1mM)	NP40-soluble protein abundance (concentration: 0.5mM)	NP40-soluble protein abundance (concentration: 1mM)	NP40-soluble protein abundance (concentration: 2mM)	NP40-soluble protein abundance (concentration: 4mM)	NP40-soluble protein abundance (concentration: 6mM)	NP40-soluble protein abundance (concentration: 8mM)	NP40-soluble protein abundance (concentration: 10mM)
UniProt Q9UDW1	0.895 ± 0.18	0.804 ± 0.062	0.864 ± 0.065	0.919 ± 0.1	0.908 ± 0.051	0.824 ± 0.047	0.735 ± 0.042	0.75174 ± 0.00021
RAB22A (UniProt Q9UL26)	1.1 ± 0.045	1.04 ± 0.034	1.01 ± 0.014	1.01 ± 0.06	1.03 ± 0.072	0.938 ± 0.049	0.954 ± 0.047	0.922 ± 0.062
ARMC1 (UniProt Q9NVT9)	0.884 ± 0.035	0.878 ± 0.037	0.847 ± 0.056	0.831 ± 0.04	0.827 ± 0.073	0.844 ± 0.042	0.771 ± 0.089	0.808 ± 0.069
MRPL39 (UniProt Q9NYK5)	1.09 ± 0.096	1.18 ± 0.19	1.22 ± 0.26	1.35 ± 0.33	1.32 ± 0.35	1.3 ± 0.37	1.26 ± 0.27	1.2 ± 0.3
CGN (UniProt Q9P2M7)	1.06 ± 0.036	1.07 ± 0.043	1.11 ± 0.031	1.06 ± 0.064	1.08 ± 0.043	1.07 ± 0.035	1.12 ± 0.036	1.12 ± 0.071
NDUFA12 (UniProt Q9UI09)	1.04 ± 0.12	1.07 ± 0.12	1.02 ± 0.11	1.09 ± 0.18	1.11 ± 0.14	1.12 ± 0.15	1.11 ± 0.14	1.1 ± 0.2
MRPL15 (UniProt Q9P015)	1.14 ± 0.13	1.27 ± 0.31	1.46 ± 0.41	1.59 ± 0.47	1.62 ± 0.56	1.53 ± 0.48	1.49 ± 0.48	1.43 ± 0.52
TMEM30A (UniProt Q9NV96)	1.03 ± 0.033	0.992 ± 0.021	1.04 ± 0.082	1.01 ± 0.018	1.02 ± 0.019	0.935 ± 0.052	1.01 ± 0.09	0.979 ± 0.023
SLC39A10 (UniProt Q9ULF5)	0.974 ± 0.027	0.957 ± 0.068	0.963 ± 0.017	1 ± 0.062	0.967 ± 0.088	0.957 ± 0.075	0.995 ± 0.068	0.994 ± 0.024
UniProt Q9P2X0-2	0.92 ± 0.02	0.84 ± 0.041	0.822 ± 0.1	0.903 ± 0.077	0.932 ± 0.071	0.933 ± 0.061	0.811 ± 0.016	0.899 ± 0.055
UniProt Q9UJX5 and related entries	1.2 ± 0.19	1.24 ± 0.3	1.15 ± 0.19	1.27 ± 0.23	1.25 ± 0.27	1.23 ± 0.32	1.2 ± 0.23	1.13 ± 0.17
DPP7 (UniProt Q9UHL4)	1.12 ± 0.11	1.1 ± 0.1	1.05 ± 0.073	1.06 ± 0.073	0.977 ± 0.051	1.07 ± 0.095	1.06 ± 0.092	1.04 ± 0.064
FAM118A (UniProt Q9NWS6)	0.933 ± 0.058	0.948 ± 0.075	0.934 ± 0.071	0.934 ± 0.11	0.884 ± 0.067	0.891 ± 0.12	0.901 ± 0.064	0.875 ± 0.1
UniProt Q9NZ01	0.992 ± 0.044	1.04 ± 0.093	0.912 ± 0.072	0.958 ± 0.12	0.958 ± 0.094	0.977 ± 0.12	0.924 ± 0.075	0.89 ± 0.031
UniProt Q9NVR5	0.928 ± 0.076	0.944 ± 0.078	0.923 ± 0.048	0.885 ± 0.16	0.866 ± 0.12	0.931 ± 0.13	0.869 ± 0.086	0.906 ± 0.082
UniProt Q9ULH0 and related entries	1.27 ± 0.34	1.19 ± 0.15	1.28 ± 0.43	1.33 ± 0.47	1.35 ± 0.38	1.29 ± 0.28	1.18 ± 0.23	1.32 ± 0.28

Shown comma-delimited: entries from further up.
Target,NP40-soluble protein abundance (concentration: 0.1mM),NP40-soluble protein abundance (concentration: 0.5mM),NP40-soluble protein abundance (concentration: 1mM),NP40-soluble protein abundance (concentration: 2mM),NP40-soluble protein abundance (concentration: 4mM),NP40-soluble protein abundance (concentration: 6mM),NP40-soluble protein abundance (concentration: 8mM),NP40-soluble protein abundance (concentration: 10mM)
TMEM30A (UniProt Q9NV96),1.03 ± 0.033,0.992 ± 0.021,1.04 ± 0.082,1.01 ± 0.018,1.02 ± 0.019,0.935 ± 0.052,1.01 ± 0.09,0.979 ± 0.023
SLC39A10 (UniProt Q9ULF5),0.974 ± 0.027,0.957 ± 0.068,0.963 ± 0.017,1 ± 0.062,0.967 ± 0.088,0.957 ± 0.075,0.995 ± 0.068,0.994 ± 0.024

Additional results

Target	NP40-soluble protein abundance (concentration: 0.1mM)	NP40-soluble protein abundance (concentration: 0.5mM)	NP40-soluble protein abundance (concentration: 1mM)	NP40-soluble protein abundance (concentration: 2mM)	NP40-soluble protein abundance (concentration: 4mM)	NP40-soluble protein abundance (concentration: 6mM)	NP40-soluble protein abundance (concentration: 8mM)	NP40-soluble protein abundance (concentration: 10mM)
TMOD2 (UniProt Q9NZR1)	0.918 ± 0.13	0.867 ± 0.091	1.1 ± 0.13	1.07 ± 0.12	1.06 ± 0.13	1.09 ± 0.088	1.06 ± 0.1	1.13 ± 0.21
ARGLU1 (UniProt Q9NWB6)	1.05 ± 0.024	1.13 ± 0.062	1.3 ± 0.092	1.27 ± 0.063	1.3 ± 0.072	1.43 ± 0.062	1.62 ± 0.06	1.64 ± 0.05
UniProt Q9NV56	0.945 ± 0.026	0.879 ± 0.061	1.01 ± 0.075	1.05 ± 0.048	1.03 ± 0.022	1.06 ± 0.054	1.04 ± 0.11	1.13 ± 0.12
UniProt Q9NW68-2|Q9NW68-4|Q9NW68	0.882 ± 0.03	0.863 ± 0.061	0.935 ± 0.019	0.929 ± 0.065	0.856 ± 0.064	0.914 ± 0.063	0.874 ± 0.055	0.969 ± 0.022
UniProt Q9P0N9 and related entries	0.968 ± 0.028	0.932 ± 0.015	0.859 ± 0.08	0.902 ± 0.013	0.87 ± 0.059	0.863 ± 0.045	0.835 ± 0.077	0.857 ± 0.073
UniProt Q9NZN5 and related entries	1.08 ± 0.024	1.07 ± 0.11	1.03 ± 0.034	1.01 ± 0.082	1.01 ± 0.069	1.07 ± 0.1	0.998 ± 0.057	1.05 ± 0.061
UniProt Q9P0B6	0.888 ± 0.038	0.805 ± 0.091	1.05 ± 0.1	1.02 ± 0.19	0.926 ± 0.095	0.853 ± 0.12	0.843 ± 0.12	0.959 ± 0.03
UniProt Q9P2N6 and related entries	1.02 ± 0.033	1.02 ± 0.062	1.08 ± 0.024	1.12 ± 0.038	1.16 ± 0.02	1.14 ± 0.054	1.26 ± 0.13	1.19 ± 0.16
UniProt Q9NUP7	1.01 ± 0.045	1.01 ± 0.043	0.984 ± 0.08	0.94 ± 0.11	0.945 ± 0.12	0.905 ± 0.085	0.932 ± 0.078	0.913 ± 0.14
HDAC6 (UniProt Q9UBN7)	0.988 ± 0.03	0.978 ± 0.047	0.941 ± 0.078	0.964 ± 0.08	0.905 ± 0.074	0.953 ± 0.096	0.941 ± 0.039	0.899 ± 0.065
AGPAT5 (UniProt Q9NUQ2)	0.994 ± 0.049	0.963 ± 0.029	0.927 ± 0.069	0.967 ± 0.033	0.934 ± 0.041	0.914 ± 0.12	0.871 ± 0.02	0.903 ± 0.032
TRNAU1AP (UniProt Q9NX07)	0.976 ± 0.035	0.959 ± 0.022	0.926 ± 0.024	0.928 ± 0.026	0.928 ± 0.025	0.898 ± 0.024	0.937 ± 0.038	0.911 ± 0.027
SEL1L (UniProt Q9UBV2)	1.02 ± 0.061	1 ± 0.051	1.03 ± 0.063	0.977 ± 0.039	1.01 ± 0.076	1.01 ± 0.032	1.04 ± 0.048	0.994 ± 0.017
UniProt Q9NZD8 and related entries	1.03 ± 0.047	1 ± 0.028	0.944 ± 0.089	0.937 ± 0.04	0.883 ± 0.059	0.891 ± 0.072	0.916 ± 0.07	0.88 ± 0.057
NECAP2 (UniProt Q9NVZ3)	1.02 ± 0.1	0.984 ± 0.064	0.993 ± 0.097	0.915 ± 0.077	0.875 ± 0.087	0.895 ± 0.084	0.9 ± 0.11	0.883 ± 0.089
TUBE1 (UniProt Q9UJT0)	1.04 ± 0.037	1.04 ± 0.068	1.03 ± 0.035	0.981 ± 0.049	1.04 ± 0.054	0.965 ± 0.03	1.02 ± 0.092	1 ± 0.035

Reference: the supplement of paper PMC6411743
